In US10562878B2:
A number of entries come with more than one value. This list holds those alone. An entry can have further records. Results that share an entry do not match, cause unknown; they may come from other doses, times, organisms or constructs than stated.

Test system: mice
Assay: Mouse locomotor activity
Format: in vivo
Conditions: 3 mg/kg PO

CN(C)CC1(c2ccc3ccccc3c2)CCC(C)(O)CC1 (stereo not shown)
Mouse Locomotor Activity Total Distance Traveled ± S.E.M.: 415.9 ± 61.6 and 341.8 ± 78.3
